Results are given in words; binding and its absence hold for the method and conditions named. In cells and extracts the contact can be indirect.
Biological target: eIF4AIII (Drosophila melanogaster (endogenous in S2 cells)) (UniProt Q9VHS8)
Assay: co-sedimentation; 10–50% sucrose gradient (polysome profiling) of S2 cell cytoplasmic extracts, 38,000 rpm 160 min 4°C; fractions assayed by Western blotting

Sequences of proteins named here, by UniProt entry; tags and fusion partners are left off.
UniProt Q9VHS8: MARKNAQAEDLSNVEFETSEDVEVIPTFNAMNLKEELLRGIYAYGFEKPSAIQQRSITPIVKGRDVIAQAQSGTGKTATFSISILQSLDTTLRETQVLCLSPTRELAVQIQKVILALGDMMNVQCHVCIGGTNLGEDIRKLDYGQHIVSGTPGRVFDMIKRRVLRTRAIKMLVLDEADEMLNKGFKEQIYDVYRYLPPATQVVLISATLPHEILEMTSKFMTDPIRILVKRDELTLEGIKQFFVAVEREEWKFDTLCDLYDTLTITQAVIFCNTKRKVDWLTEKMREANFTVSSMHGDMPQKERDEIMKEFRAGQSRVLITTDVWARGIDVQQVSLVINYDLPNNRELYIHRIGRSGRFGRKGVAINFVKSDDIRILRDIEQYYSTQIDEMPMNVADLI
UniProt Q9V535: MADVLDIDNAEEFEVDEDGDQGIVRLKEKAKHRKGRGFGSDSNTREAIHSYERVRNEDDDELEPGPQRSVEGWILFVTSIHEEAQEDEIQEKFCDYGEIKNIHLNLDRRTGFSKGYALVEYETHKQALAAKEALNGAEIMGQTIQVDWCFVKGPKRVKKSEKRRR

## Y14 (from UniProt Q9V535 1-165)
  binding: no binding

Source: article PMC5158136
